PubChem BioAssay AID1259308 | NCATS | 2017
The whole screen tested about 59,000 reagents; shown is a part drawn at random. About 1,510 of all reagents (2.6%) count as active. 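Calls use total luciferase alone and ignore viability, so some active siRNAs may act by altering cell number.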 Reagents against one gene are numbered here. Reagent sequences are not shown.

- Purpose: 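Candidate targets for better recombinant protein yield in mammalian cells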 (primary screen)
- Cells: human HEK293 embryonic kidney cells stably expressing firefly luciferase (HEK-CMV-Luc2-Hygro)
- Knock-down reagent: single siRNA against human genes, 0.8 pmol siRNA per well
- Duration: 72 h
- Measurement: 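Reporter luminescence and viable-cell signal on separate replicate plates, given as percent of non-targeting control and median/MAD z-scores, plus per-cell luciferase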
- Reading the numbers: total luciferase, z-score and total luciferase, % of control: higher = more reporter protein produced; luciferase per cell, z-score: higher = more reporter output per viable cell; viable cells, % of control: higher = more viable cells
- Rule for the call: 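Active when the median/MAD z-score for overall luciferase is greater than 3; a gene was taken forward for validation with new siRNAs if at least two of its three siRNAs passed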
- Calls: active = raised luciferase; inactive = no rise

gene	reagent no.	total luciferase, z-score	total luciferase, % of control	luciferase per cell, z-score	viable cells, % of control	call
BARHL1	1	1.9	120	1.84	82.3	inactive
BARHL1	2	0.68	95.4	0.0526	105	inactive
BARHL1	3	-0.211	77.7	-0.109	89.4	inactive
ARSK	1	-0.199	77.9	0.112	84.6	inactive
ARSK	2	-1.65	49	-1.72	86	inactive
ARSK	3	-1.62	49.6	-0.597	64.9	inactive
CCNT1	1	1.55	113	1.49	85.1	inactive
CCNT1	2	0.157	85	-0.506	109	inactive
CCNT1	3	-0.138	79.1	-0.606	104	inactive
OSTF1	1	-0.335	75.2	-0.794	104	inactive
OSTF1	2	0.922	100	0.189	107	inactive
OSTF1	3	-0.953	62.9	1.12	52.3	inactive
ORMDL1	1	0.461	91.1	0.472	89.9	inactive
ORMDL1	2	0.553	92.9	0.739	85.5	inactive
ORMDL1	3	0.219	86.2	-0.492	110	inactive
SCGB1D1	1	-0.371	74.5	-0.454	93.8	inactive
SCGB1D1	2	-0.0198	81.5	1.37	63.5	inactive
SCGB1D1	3	-0.728	67.4	-1.01	98.3	inactive
WASF2	1	2.52	132	1.7	94.2	inactive
WASF2	2	-0.656	68.8	-0.452	86.6	inactive
WASF2	3	1.47	111	2.36	66.7	inactive
KNG1	1	-0.441	73.1	-0.556	94.6	inactive
KNG1	2	-1.32	55.7	-0.568	72.3	inactive
KNG1	3	-0.924	63.5	-1.19	97.2	inactive
TYR	1	-0.0265	81.4	-0.432	102	inactive
TYR	2	-0.847	65	-0.0709	74.1	inactive
TYR	3	-2.05	41.2	-2.32	84.6	inactive
TBXAS1	1	-1.03	61.5	-1.56	104	inactive
TBXAS1	2	-1.34	55.3	-1.72	97.3	inactive
TBXAS1	3	1.35	109	1.61	79.5	inactive
GOLGA6L9	1	3.11	144	2.34	86.7	active
GOLGA6L9	2	-0.686	68.2	-0.327	83.1	inactive
GOLGA6L9	3	1.72	116	1.47	88.1	inactive
LOC642620 (retired record)	1	-0.784	66.3	-0.399	82.3	inactive
LOC642620 (retired record)	2	0.762	97	1.6	71.2	inactive
LOC642620 (retired record)	3	1.24	107	1.32	84.1	inactive
LOC642620 (retired record)	4	-1.85	45.2	-1.84	81.9	inactive
LOC642620 (retired record)	5	2.03	122	1.23	98.7	inactive
LOC642620 (retired record)	6	1.25	107	0.959	92.7	inactive
CDK5R2	1	0.729	96.4	-0.363	119	inactive
CDK5R2	2	-0.153	78.8	-0.283	94.9	inactive
CDK5R2	3	0.125	84.4	0.242	88.5	inactive
PARVG	1	2.32	128	1.46	97.2	inactive
PARVG	2	0.655	94.9	1.05	80.4	inactive
PARVG	3	1.04	103	0.471	101	inactive
CRTAM	1	0.821	98.2	1.15	81	inactive
CRTAM	2	1.53	112	0.54	109	inactive
CRTAM	3	-0.416	73.6	-0.615	96.7	inactive
CSPG4	1	-0.461	72.7	-0.193	85.5	inactive
CSPG4	2	-0.642	69.1	-0.812	95.7	inactive
CSPG4	3	2.04	123	1.95	81.8	inactive
FBXO8	1	0.00168	81.9	0.21	86.6	inactive
FBXO8	2	-1.26	56.8	-0.696	76.2	inactive
FBXO8	3	2.04	122	1.03	104	inactive
ARMH1	1	-1.59	50.3	-0.83	69.9	inactive
ARMH1	2	1.47	111	1.14	92	inactive
ARMH1	3	0.478	91.4	1.06	77.2	inactive
PTTG2	1	-0.957	62.9	-0.758	85.8	inactive
PTTG2	2	-0.17	78.5	-0.241	93.5	inactive
PTTG2	3	0.418	90.2	0.28	93.6	inactive
PRPF19	1	2.36	129	1.55	95.6	inactive
PRPF19	2	3.98	161	2.44	94.6	active
PRPF19	3	4.18	165	2.44	97	active
EIF4EBP2	1	-0.129	79.3	0.8	71.8	inactive
EIF4EBP2	2	0.951	101	2.09	64.9	inactive
EIF4EBP2	3	-0.251	76.9	-0.403	95.6	inactive
TARBP2	1	1.43	110	1.39	85.5	inactive
TARBP2	2	-0.552	70.9	-0.419	88.5	inactive
TARBP2	3	-1.39	54.2	-1.21	83.4	inactive
CNN3P1	1	0.351	88.9	0.242	93.2	inactive
CNN3P1	2	4.04	162	2.43	95.6	active
CNN3P1	3	0.993	102	2.15	64.5	inactive
OR2B11	1	0.0725	83.3	0.508	81.4	inactive
OR2B11	2	-0.832	65.3	-0.518	83.7	inactive
OR2B11	3	-0.43	73.3	-0.292	88.5	inactive
